Data source: PubChem BioAssay AID1259266 (Sanger Institute, 2017)
The deposit covers 794 reagents; shown is a random part of them. 16 of all reagents (2%) count as active. 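Calls reflect knock-down alone, not drug synergy; viability seems capped at 1 and z-scores at 0.585.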 Not all columns of the deposit are shown. The record does not give: the amount of reagent, the time to read-out.

- Screen: 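Essential genes and drug synergy among kinases and colorectal-mutated genes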 (primary screen)
- Cells: LS123 human colorectal cancer cells
- Reagents: siRNA pool against human genes
- Treatment: anchor drugs BYL719 (1 µM), cetuximab (5 µg/ml) or trametinib (10 nM), each chosen to barely slow growth alone; DMSO vehicle as the drug-free arm
- Measured: 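Viability relative to non-targeting control pools, replicate mean, with a robust z-score for knock-down alone and synergy scores for each anchor drug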
- Scale: robust z-score, knock-down alone: higher = more cells surviving after knock-down
- Active means: 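a knock-down counts as essential if its z-score without drug is under -3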
- Calls: active = essential (knock-down alone cuts viability); inactive = no change

SHPK | robust z-score, knock-down alone = 0.585; outcome = inactive
ULK2 | robust z-score, knock-down alone = -0.352; outcome = inactive
PIK3C3 | robust z-score, knock-down alone = 0.585; outcome = inactive
IGF2R | robust z-score, knock-down alone = 0.585; outcome = inactive
GUCY2F | robust z-score, knock-down alone = 0.585; outcome = inactive
MAP2K6 | robust z-score, knock-down alone = 0.585; outcome = inactive
KSR1 | robust z-score, knock-down alone = -2.58; outcome = inactive
STK26 | robust z-score, knock-down alone = 0.585; outcome = inactive
CDKN2D | robust z-score, knock-down alone = -1.34; outcome = inactive
PRKX | robust z-score, knock-down alone = 0.585; outcome = inactive
AURKA | robust z-score, knock-down alone = -4.69; outcome = active
PFKFB1 | robust z-score, knock-down alone = 0.229; outcome = inactive
TSSK6 | robust z-score, knock-down alone = -2.45; outcome = inactive
JAK1 | robust z-score, knock-down alone = 0.585; outcome = inactive

Hits, among the entries above:
AURKA | robust z-score, knock-down alone = -4.69; outcome = active

More records follow.
DYRK3 | robust z-score, knock-down alone = -0.219; outcome = inactive
ZC3H11A | robust z-score, knock-down alone = 0.32; outcome = inactive
KALRN | robust z-score, knock-down alone = 0.392; outcome = inactive
PKDCC | robust z-score, knock-down alone = 0.585; outcome = inactive
DUSP21 | robust z-score, knock-down alone = -0.238; outcome = inactive
SF3B1 | robust z-score, knock-down alone = -2.89; outcome = inactive
CSNK1A1 | robust z-score, knock-down alone = 0.128; outcome = inactive
GNE | robust z-score, knock-down alone = 0.074; outcome = inactive
DCLK3 | robust z-score, knock-down alone = 0.585; outcome = inactive
MAP4K2 | robust z-score, knock-down alone = 0.322; outcome = inactive
CSNK1D | robust z-score, knock-down alone = 0.585; outcome = inactive
NME2 | robust z-score, knock-down alone = 0.585; outcome = inactive
RAF1 | robust z-score, knock-down alone = 0.585; outcome = inactive
PSTK | robust z-score, knock-down alone = 0.585; outcome = inactive
TNNI3K | robust z-score, knock-down alone = 0.585; outcome = inactive
FGFRL1 | robust z-score, knock-down alone = 0.317; outcome = inactive
CDK11B | robust z-score, knock-down alone = 0.585; outcome = inactive
PAK2 | robust z-score, knock-down alone = 0.585; outcome = inactive
BCOR | robust z-score, knock-down alone = 0.585; outcome = inactive
CDK11A | robust z-score, knock-down alone = 0.585; outcome = inactive
JAK2 | robust z-score, knock-down alone = -0.0168; outcome = inactive
EPHA7 | robust z-score, knock-down alone = -1.27; outcome = inactive
